The numbers were not newly measured in US10201537B2 (INFLAMMATORY RESPONSE RESEARCH, INC., priority 2013, dated 2019), which cites them from elsewhere.

The structures appear in SMILES notation.

For this series the following is noted: in vivo.

Take `O=C(O)COCCN1CCN([C@H](c2ccccc2)c2ccc(Cl)cc2)CC1` [Levocetirizine]: the “time to peak plasma level” value is 0.9 h.
